Source: publication PMC5633398
Results are given in words; binding and its absence hold for the method and conditions named. For some assays here: In cells and extracts the contact can be indirect. Some results given as binding are weak or reduced against the parent protein; the word gives no strength. For some assays here: Tags and fused reporters may be left off the sequences shown.

Assays:
[1] = biological target: Snf4-CV (Snf4 tagged C-terminally with the C-terminal segment of yEmVenus) (C. albicans); experiment: split reporter; BiFC with split yEmVenus in C. albicans SN152, MET3 promoter; microplate reader, fluorescence normalised to OD600 and to the autofluorescence of a strain with backbone vectors; low-fluorescence SC -methionine -cysteine, 2% glucose; exponential phase
[2] = biological target: Snf4-CV (Snf4 tagged C-terminally with the C-terminal segment of yEmVenus) (C. albicans); experiment: split reporter; BiFC with split yEmVenus in C. albicans SN152, MET3 promoter; confocal microscopy of living cells in the midexponential phase, SC -methionine -cysteine, 2% glucose (Bcy1-Tpk strains at 37°); fluorescence intensity per pixel quantified
[3] = biological target: T1, Bcy1-NV (Bcy1 tagged C-terminally with the N-terminal segment of yEmVenus) (C. albicans) (UniProt Q9HEW1); experiment: as above
T1 sequence: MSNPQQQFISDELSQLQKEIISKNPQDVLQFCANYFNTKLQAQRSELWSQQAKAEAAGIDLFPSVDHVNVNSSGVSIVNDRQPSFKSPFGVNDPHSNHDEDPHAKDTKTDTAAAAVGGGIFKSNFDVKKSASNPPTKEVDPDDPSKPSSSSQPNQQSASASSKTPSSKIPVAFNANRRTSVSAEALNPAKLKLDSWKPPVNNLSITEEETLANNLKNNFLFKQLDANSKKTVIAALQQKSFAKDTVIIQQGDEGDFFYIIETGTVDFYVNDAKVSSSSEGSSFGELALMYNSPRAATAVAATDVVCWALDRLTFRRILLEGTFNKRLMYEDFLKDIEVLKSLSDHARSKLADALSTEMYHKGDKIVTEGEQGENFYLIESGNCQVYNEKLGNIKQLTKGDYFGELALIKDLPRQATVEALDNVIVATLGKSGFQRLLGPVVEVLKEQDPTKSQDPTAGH

[4] = biological target: T2, Bcy1, Candida two-hybrid construct (C. albicans) (UniProt Q9HEW1); experiment: two-hybrid; Candida two-hybrid in C. albicans SC2H3, vectors pC2HB (bait) and pC2HP (prey), MET3 promoter; scored by growth on medium lacking methionine, cysteine and histidine; 3 d at 30°
T2 sequence: T1 sequence

[5] = biological target: Snf4, Candida two-hybrid construct (full-length SNF4) (C. albicans); experiment: as above

B1: Kis1-NV (full-length Kis1 tagged C-terminally with the N-terminal segment of yEmVenus) (protein, UniProt Q59X47 1-412)
chain: MLSPKSTNQEAPATAPLDDINTTKDVSMVDVSKAEGENQQPPRRKSTIILTDEIDLDRMNIDNKESDKSNEQGDKMHIDRSLSNLNQQQHSQSSQSEPSQPEQQQQQQQQQQQQQQQPVAPDANIAVPVDIKWVQGGQKVYVTGSFTGWRKMIGLVKQPDDNFMITLGLPVGTHRFRFVVDNELRFSDFLPTATDQMGNFVNYIEITPENVQQHLLQEKEESNNESQQQELEKQQAKTGDKTSSQQASRRSSVSRSRSNSMWGLTNDDDDMGDGYSRYHDDESNALDEKTYQYIKDIPPIFTDPKVMEQYYVAIDKQSRNNNGQQQAWLHPPQLPPHLESVILNNFNNTENNSGALPIPNHVVLNHLATTSIKHNTLAVASIVRYKRKYLTQVLYAPLQQASSSSTTQEQQS
[1]
  binding: binds
[2]
  binding: binds

B2: Tpk1-CV (Tpk1 tagged C-terminally with the C-terminal segment of yEmVenus) (enzyme, UniProt Q5AP71 1-405)
chain: MTSMEPADTSIRSLNDINLQELANKQHQRNIYAQGSPTLEDSITSNGNDINNPNNNINKTNNNSNSSLSLTKKTSRHINKDTTTKGKYTLNDFQILRTLGTGSFGRVHLTRSIHNGRFYAMKVLKKQRVVQMKQIEHTNDERRMLKLAQHPFIIRMWGTFQDCHNLFMIMDYIEGGELFSLLRKSQRFPTPVAKFYAAEVFLAIEYLHSLDIIYRDLKPENILLDKNGHIKLTDFGFAKEVQDVTYTLCGTPDYIAPEVVATKPYNKSVDWWSFGILIFEMLTGYTPFYDPTPMKTYENILNGSITYPDYLPPDILDLLQKLIVKDLTQRLGNLQGGSDDVKNHPWFKEVIWERLLSRDIETPYEPPITSGVGDTSQFDRYPEDKDLDYGISGVEDPYRDQFQDF
[3]
  binding: binds

B3: Tpk1, Candida two-hybrid construct (enzyme, UniProt Q5AP71 1-405)
chain: B2 chain
[4]
  binding: binds

B4: Kis1, Candida two-hybrid construct (full-length KIS1) (protein, UniProt Q59X47 1-412)
chain: B1 chain
[5]
  binding: binds
